Measurements taken from patent US5972643.
For some assays here: Results from cells or extracts need not show a direct contact. For some assays here: Protein sequences can lack the tags named with them. For some assays here: Construct, isoform or probe ends are uncertain for at least one entry. For some assays here: Negatives hold for the conditions tested.

Experiments:
Experiment in all cases: EMSA
[1] = target: CTCF Zn-finger domain lacking C-terminal fingers 8-11 deletion of Zn fingers 8-11 (UniProt Q08705); conditions: fingers 8-11 absolutely required for P2 site; protein translated in vitro; label: 32P
[2] = target: CTCF Zn-finger domain lacking N-terminal fingers 1 and 2 deletion of Zn fingers 1-2 (UniProt Q08705); conditions: fingers 1 and 2 dispensable for P2 site; protein translated in vitro; label: 32P
[3] = target: T1, CTCF in HD3 nuclear extract (Gallus gallus) (UniProt Q08705); conditions: agarose gel EMSA; protein in an extract; label: 32P; only the site is given
T1 sequence (limits assumed): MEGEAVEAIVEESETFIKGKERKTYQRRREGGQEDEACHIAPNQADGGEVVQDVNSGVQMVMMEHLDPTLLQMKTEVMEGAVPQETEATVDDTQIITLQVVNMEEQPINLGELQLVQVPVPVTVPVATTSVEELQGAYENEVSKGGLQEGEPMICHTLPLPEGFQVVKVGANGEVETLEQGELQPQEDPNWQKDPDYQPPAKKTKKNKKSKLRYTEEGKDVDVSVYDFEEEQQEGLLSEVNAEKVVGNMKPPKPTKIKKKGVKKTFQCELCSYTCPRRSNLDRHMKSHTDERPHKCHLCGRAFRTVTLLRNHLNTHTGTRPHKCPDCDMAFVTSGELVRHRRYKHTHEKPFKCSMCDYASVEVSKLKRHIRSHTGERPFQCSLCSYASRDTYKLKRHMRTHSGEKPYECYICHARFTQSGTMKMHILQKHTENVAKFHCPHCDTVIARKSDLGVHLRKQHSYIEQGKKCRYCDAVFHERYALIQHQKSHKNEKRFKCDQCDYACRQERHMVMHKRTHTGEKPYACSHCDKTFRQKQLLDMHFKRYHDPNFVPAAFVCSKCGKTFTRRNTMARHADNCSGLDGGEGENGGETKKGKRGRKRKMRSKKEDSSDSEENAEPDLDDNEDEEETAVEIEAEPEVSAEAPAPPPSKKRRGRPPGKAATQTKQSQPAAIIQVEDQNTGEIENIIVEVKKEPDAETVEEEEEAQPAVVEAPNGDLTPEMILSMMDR

[4] = test system: poly(dG)-binding protein in HD3 nuclear extract (Gallus gallus); conditions: protein in an extract; label: 32P; only the site is given
[5] = test system: Sp1-like factors in HD3 nuclear extract (Gallus gallus); conditions: protein in an extract; label: 32P; only the site is given

Q: Does “AAGAACGGAGGGAGGGATCGCGCTGAGTATAAAAGCCGGTTTTCGGGGCTTTATCTAACTCGCTGTAGTAATTCCAGCGAGAGGCAGAGGGAGCGAGCGGGCGGCCGGCTAGGGTGGAAGAGCCGGGCGAGCAGAGCTGCGCTGCGGGCGTCCTGGGAAGGGAGATCCGGAGCGAAT (double strand) [human c-myc fragment A]” bind [1]?
A: no binding

Q: Does “AAGAACGGAGGGAGGGATCGCGCTGAGTATAAAAGCCGGTTTTCGGGGCTTTATCTAACTCGCTGTAGTAATTCCAGCGAGAGGCAGAGGGAGCGAGCGGGCGGCCGGCTAGGGTGGAAGAGCCGGGCGAGCAGAGCTGCGCTGCGGGCGTCCTGGGAAGGGAGATCCGGAGCGAAT (double strand) [human c-myc fragment A]” bind [2]?
A: binds

Q: Does “TACTCGGGGGGGGGCACGGAGCCCCTCGGCCGCCCCCTCGCGGCGCGCCCTCCCCGCTCA (double strand) [152 bp HindIII-ApaI chicken c-myc fragment wild type]” bind [3]?
A: binds

Q: Does “TACTCGGGGGGGGGCACGGAGCCCCTCGGCCGCCCCCTCGCGGCGCGCCCTCCCCGCTCA (double strand) [152 bp HindIII-ApaI chicken c-myc fragment wild type]” bind [4]?
A: binds

Q: Does “TACTCGGGGGGGGGCACGGAGCCCCTCGGCCGCCCCCTCGCGGCGCGCCCTCCCCGCTCA (double strand) [152 bp HindIII-ApaI chicken c-myc fragment wild type]” bind [5]?
A: binds
